The assay in a line: qHTS Assay for Modulators of Lamin A Splicing. Conditions: HeLa LMNA splicing GFP/RFP minigene ratio, 48 h. In a few lines:
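S3 HeLa stable clones carrying a lamin A-EGFP splicing minigene plus DsRed2 were seeded at 600 cells/well in Opti-MEM with 2% FBS, pin-dosed and incubated 48 h at 37°C. Acumen cytometry (488 nm) gave the GFP/RFP total-intensity ratio.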
(In qHTS, concentration-response curves come from the screen itself.)

Where [1] appears, read: measured here: RFP viability control channel.
Setting [2] is: measured here: GFP splicing reporter channel.

Molecules are shown by their SMILES. This is one part of the list. Shown are side measurements of this screen, not its main read-out; they come without a call. Most of these compounds were active or inconclusive in the main read-out, so they are no random draw. The note in brackets gives the kind of curve behind each potency; many fits are weak.

The term AC50 denotes the concentration at which the activity in the assay is half-maximal. Consider `C/C(Cl)=C\Cn1c(Nc2cccc(C)c2)nc2c1c(=O)n(C)c(=O)n2C`, for which the AC50 under setting [1] was 0.0501 µM [rising, partial curve, poor fit].
For `CCOC(=O)N1CCN(S(=O)(=O)c2ccc(OCC)c3ccccc23)CC1`, the AC50 under setting [2] was 15.8 µM [rising, partial curve, poor fit] and the AC50 under setting [1] was 17.8 µM [rising, partial curve].
For the compound `C[C@@H](CN(C)C)CN1c2ccccc2Sc2ccccc21`, the AC50 under setting [1] was 0.0355 µM [rising, full curve, poor fit].
The same measure, in the same setting: with `COc1ccc(-c2cc(=O)n(-c3nc4ccccc4[nH]3)[nH]2)cc1` the figure was 25.1 µM [rising, single point].
Take `CC(=O)Nc1ccc(Cc2nc3ccccc3[nH]2)cc1`: under setting [2], the AC50 was 17.8 µM [rising, single point].
`CN(C)c1ncnc2ccc(-c3ccc4c(c3)OCO4)cc12`: the AC50 is, setting by setting: under setting [2], 22.4 µM [falling, partial curve, poor fit]; under setting [1], 20 µM [falling, partial curve].
In the case of `Cc1ccc(C)c(N2CCN(C(=O)Cn3c(-c4cccs4)cc4ccccc43)CC2)c1`, the AC50 under setting [2] is 0.00282 µM [falling, full curve] and the AC50 under setting [1] was 0.01 µM [falling, full curve].
In the case of `CCN(C(=O)Cn1cc(S(=O)(=O)Cc2ccccc2Cl)c2ccccc21)c1ccccc1`, the AC50 under setting [2] is 0.02 µM [falling, full curve, poor fit].
As to `O=C(CNC(=O)C1CCCCC1)OCC(=O)c1ccc(Cl)s1`, the AC50 under setting [1] is 5.62 µM [falling, single point].
On to `Cn1ccc(NC(=O)Nc2cccc([N+](=O)[O-])c2)n1`, for which the AC50 under setting [1] was 0.0224 µM [falling, full curve, poor fit].
In the case of `Cc1cc(NC(=O)C2CCCCC2)ncc1NC(=O)c1ccccn1`, the AC50 runs as follows: under setting [2], 22.4 µM [falling, partial curve]; under setting [1], 11.2 µM [falling, partial curve].
On to `Cc1cccc(OCC(=O)O/N=C(\N)Cc2ccc(Cl)cc2)c1`, for which the AC50 under setting [2] is 35.5 µM [rising, single point].
As to `CCOC(=O)c1c(S(=O)(=O)NCC(=O)Nc2ccc(C)c(Cl)c2)c(C)n(C)c1C`, the AC50 under setting [1] was 10 µM [falling, single point].
Still for that read-out and setting: with `COc1ccc2nc(NC(=O)C3CCN(S(=O)(=O)c4cccs4)CC3)sc2c1` the figure was 10 µM [rising, partial curve].
Consider `COc1ccc(-c2csc(NC(=O)/C(N=Nc3ccccc3)=C(\C)O)n2)cc1`, for which the AC50 is 0.0708 µM [falling, full curve, poor fit] under setting [2] and 0.0251 µM [falling, full curve, poor fit] under setting [1].

The values are drawn from PubChem BioAssay AID1487 (National Center for Advancing Translational Sciences (NCATS), 2009).
